Experimental data reported in article PMC5039532 (Marine Drugs, 2016).

assay: general procedure: peptide synthesis; 2-chlorotrityl chloride (CTC) resin (1.05 mmol/g); DEPBT/DIPEA; PyBOP/DIPEA for macrocyclisation; details: cyclisation step

**Q.** For cyclo(D-Phe-D-Leu-D-Leu-N-Me-Leu-D-Leu), which cyclisation yield is on record?
**A.** 55.5%

**Q.** With “cyclo(D-Phe-D-Leu-N-Me-Leu-D-Leu-N-Me-Leu)” as the substance, how does the cyclisation yield read?
**A.** 53.9%

**Q.** For cyclo(Phe-Leu-Leu-D-Leu-N-Me-Leu), which cyclisation yield is on record?
**A.** 46.1%

**Q.** With cyclo(Phe-Leu-Leu-Leu-D-N-Me-Leu) as the substance, how does the cyclisation yield read?
**A.** 66.4%

**Q.** With cyclo(D-Phe-Leu-Leu-D-N-Me-Leu-Leu) as the substance, how does the cyclisation yield read?
**A.** 56.4%

**Q.** With “cyclo(D-Phe-D-N-Me-Leu-Leu-N-Me-Leu-Leu)” as the substance, how does the cyclisation yield read?
**A.** 45.5%

**Q.** For cyclo(D-Phe-Leu-D-Leu-Leu-N-Me-Leu), which cyclisation yield is on record?
**A.** 48.5%

**Q.** Which cyclisation yield does the source give for (cyclo(Phe-Leu-D-N-Me-Leu-D-Leu-D-Leu) here?
**A.** 51.7%

**Q.** Which cyclisation yield does the source give for cyclo(D-Phe-Leu-Leu-N-Me-Leu-D-Leu) here?
**A.** 60.2%

**Q.** For cyclo(D-Phe-Leu-N-Me-Leu-D-Leu-D-Leu), which cyclisation yield is on record?
**A.** 61.5%

**Q.** Which cyclisation yield does the source give for cyclo(D-Phe-Leu-Leu-D-Leu-N-Me-Leu) here?
**A.** 65.4%

**Q.** With “cyclo(D-Phe-N-Me-Leu-Leu-Leu-D-N-Me-Leu)” as the substance, how does the cyclisation yield read?
**A.** 45.1%

**Q.** Which cyclisation yield does the source give for cyclo(Phe-D-Leu-Leu-D-N-Me-Leu-Leu) here?
**A.** 53.3%

**Q.** Which cyclisation yield does the source give for cyclo(D-Phe-D-Leu-Leu-D-N-Me-Leu-Leu) here?
**A.** 56.2%

**Q.** Which cyclisation yield does the source give for cyclo(D-Phe-Leu-D-Leu-N-Me-Leu-Leu) here?
**A.** 53.1%

**Q.** Which cyclisation yield does the source give for cyclo(Phe-Leu-Leu-D-N-Me-Leu-Leu) here?
**A.** 49.2%

**Q.** With cyclo(Phe-Leu-D-Leu-N-Me-Leu-Leu) as the substance, how does the cyclisation yield read?
**A.** 52.2%

**Q.** Which cyclisation yield does the source give for cyclo(Phe-D-Leu-Leu-N-Me-Leu-Leu) here?
**A.** 44.8%

**Q.** Which cyclisation yield does the source give for cyclo(Phe-D-Leu-D-Leu-D-Leu-N-Me-Leu) here?
**A.** 55.1%

**Q.** Which cyclisation yield does the source give for cyclo(D-Phe-D-Leu-Leu-N-Me-Leu-D-Leu) here?
**A.** 50.4%

**Q.** Which cyclisation yield does the source give for cyclo(D-Phe-Leu-D-Leu-D-Leu-D-N-Me-Leu) here?
**A.** 50.0%

**Q.** With cyclo(D-Phe-Leu-D-N-Me-Leu-Leu-D-Leu) as the substance, how does the cyclisation yield read?
**A.** 53.8%

**Q.** For cyclo(Phe-D-Leu-N-Me-Leu-D-Leu-D-Leu), which cyclisation yield is on record?
**A.** 57.3%

**Q.** For cyclo(Phe-Leu-Leu-N-Me-Leu-D-Leu), which cyclisation yield is on record?
**A.** 64.5%
